Results as given in US7091220B2, “Substituted indole Mannich bases” (Gruenenthal GmbH, priority 1999, dated 2006).
For at least one compound, name, drawing or mass did not settle the structure.

tested on: α2-subtype of the human α-adrenergic receptor; assay: SPA test, affinity for the α2-subtype of the human α-adrenergic receptor; assay type: binding
Protocol: Wide-ranging testing of the indole Mannich bases according to the invention for their activity was carried out by the conventional high throughput screening methods, such as are described in John P. Devlin, High Throughput Screening, 1997, Marcel Dekker Inc. They are introduced here as a reference and are therefore part of the disclosure.
The action of the indole Mannich bases according to the invention is determined in particular by the affinity for the N-methyl-D-aspartate (NMDA) receptor family, for (α-adrenergic receptors and opioid receptors.
The compounds of the general formula 1 according to the invention investigated are suitable as ligands for the α2-subtype of the human α-adrenergic receptor, which is of importance for pain sensation.
The affinity of the compounds according to the invention for this α2-subtype of the α-adrenergic receptor has been determined with the aid of the SPA test such as is described in John P. Devlin, High Throughput Screening, Marcel Dekker Inc. 1997, pages 307 to 316. This literature is introduced herewith as a reference and is therefore part of the disclosure. The affinities of the compounds according to the invention were in each case determined at a concentration of 10 μM.

Compound | % Inhibition of α2 (humans), 10 μM
Cc1[nH]c2ccccc2c1C(c1ccccc1)N(C)C (stereo not shown) [Example 7, Dimethyl-[(2-methyl-1H-indol-3-yl)-phenylmethyl]-amine] | 68%
Cc1ccccc1C(c1c(-c2ccccc2)[nH]c2ccccc12)N1CCCCC1 (stereo not shown) [Example 30, 2-Phenyl-3-(piperidin-1-yl-o-tolylmethyl)-1H-indole] | 40%
COc1ccccc1C(c1c(-c2ccccc2)[nH]c2ccccc12)N1CCCC1 (stereo not shown) [Example 34, 3-[(2-methoxyphenyl)-pyrrolidin-1-yl-methyl]-2-phenyl-1H-indole] | 95%
COc1ccccc1C(c1c[nH]c2cccc(C)c12)N1CCCC1 (stereo not shown) [Example 36, 3-[(2-Methoxyphenyl)-pyrrolidin-1-yl-methyl]-4-methyl-1H-indole] | 67%
